Reference: the supplement of paper PMC12595434, “Development of retinoid nuclear receptor pathway antagonists through targeting aldehyde dehydrogenase 1A3” (iScience, 2025)
Some of the results follow. Single values of this set are uncertain.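 Tm was set to 64 °C where no melting was found, and many curves are irregular.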

Protein sequences, listed by entry. Tags and fused reporters are not part of them. Lines headed by an entry give the natural chain unless they say otherwise; changes in a name come on top.
UniProt O94854: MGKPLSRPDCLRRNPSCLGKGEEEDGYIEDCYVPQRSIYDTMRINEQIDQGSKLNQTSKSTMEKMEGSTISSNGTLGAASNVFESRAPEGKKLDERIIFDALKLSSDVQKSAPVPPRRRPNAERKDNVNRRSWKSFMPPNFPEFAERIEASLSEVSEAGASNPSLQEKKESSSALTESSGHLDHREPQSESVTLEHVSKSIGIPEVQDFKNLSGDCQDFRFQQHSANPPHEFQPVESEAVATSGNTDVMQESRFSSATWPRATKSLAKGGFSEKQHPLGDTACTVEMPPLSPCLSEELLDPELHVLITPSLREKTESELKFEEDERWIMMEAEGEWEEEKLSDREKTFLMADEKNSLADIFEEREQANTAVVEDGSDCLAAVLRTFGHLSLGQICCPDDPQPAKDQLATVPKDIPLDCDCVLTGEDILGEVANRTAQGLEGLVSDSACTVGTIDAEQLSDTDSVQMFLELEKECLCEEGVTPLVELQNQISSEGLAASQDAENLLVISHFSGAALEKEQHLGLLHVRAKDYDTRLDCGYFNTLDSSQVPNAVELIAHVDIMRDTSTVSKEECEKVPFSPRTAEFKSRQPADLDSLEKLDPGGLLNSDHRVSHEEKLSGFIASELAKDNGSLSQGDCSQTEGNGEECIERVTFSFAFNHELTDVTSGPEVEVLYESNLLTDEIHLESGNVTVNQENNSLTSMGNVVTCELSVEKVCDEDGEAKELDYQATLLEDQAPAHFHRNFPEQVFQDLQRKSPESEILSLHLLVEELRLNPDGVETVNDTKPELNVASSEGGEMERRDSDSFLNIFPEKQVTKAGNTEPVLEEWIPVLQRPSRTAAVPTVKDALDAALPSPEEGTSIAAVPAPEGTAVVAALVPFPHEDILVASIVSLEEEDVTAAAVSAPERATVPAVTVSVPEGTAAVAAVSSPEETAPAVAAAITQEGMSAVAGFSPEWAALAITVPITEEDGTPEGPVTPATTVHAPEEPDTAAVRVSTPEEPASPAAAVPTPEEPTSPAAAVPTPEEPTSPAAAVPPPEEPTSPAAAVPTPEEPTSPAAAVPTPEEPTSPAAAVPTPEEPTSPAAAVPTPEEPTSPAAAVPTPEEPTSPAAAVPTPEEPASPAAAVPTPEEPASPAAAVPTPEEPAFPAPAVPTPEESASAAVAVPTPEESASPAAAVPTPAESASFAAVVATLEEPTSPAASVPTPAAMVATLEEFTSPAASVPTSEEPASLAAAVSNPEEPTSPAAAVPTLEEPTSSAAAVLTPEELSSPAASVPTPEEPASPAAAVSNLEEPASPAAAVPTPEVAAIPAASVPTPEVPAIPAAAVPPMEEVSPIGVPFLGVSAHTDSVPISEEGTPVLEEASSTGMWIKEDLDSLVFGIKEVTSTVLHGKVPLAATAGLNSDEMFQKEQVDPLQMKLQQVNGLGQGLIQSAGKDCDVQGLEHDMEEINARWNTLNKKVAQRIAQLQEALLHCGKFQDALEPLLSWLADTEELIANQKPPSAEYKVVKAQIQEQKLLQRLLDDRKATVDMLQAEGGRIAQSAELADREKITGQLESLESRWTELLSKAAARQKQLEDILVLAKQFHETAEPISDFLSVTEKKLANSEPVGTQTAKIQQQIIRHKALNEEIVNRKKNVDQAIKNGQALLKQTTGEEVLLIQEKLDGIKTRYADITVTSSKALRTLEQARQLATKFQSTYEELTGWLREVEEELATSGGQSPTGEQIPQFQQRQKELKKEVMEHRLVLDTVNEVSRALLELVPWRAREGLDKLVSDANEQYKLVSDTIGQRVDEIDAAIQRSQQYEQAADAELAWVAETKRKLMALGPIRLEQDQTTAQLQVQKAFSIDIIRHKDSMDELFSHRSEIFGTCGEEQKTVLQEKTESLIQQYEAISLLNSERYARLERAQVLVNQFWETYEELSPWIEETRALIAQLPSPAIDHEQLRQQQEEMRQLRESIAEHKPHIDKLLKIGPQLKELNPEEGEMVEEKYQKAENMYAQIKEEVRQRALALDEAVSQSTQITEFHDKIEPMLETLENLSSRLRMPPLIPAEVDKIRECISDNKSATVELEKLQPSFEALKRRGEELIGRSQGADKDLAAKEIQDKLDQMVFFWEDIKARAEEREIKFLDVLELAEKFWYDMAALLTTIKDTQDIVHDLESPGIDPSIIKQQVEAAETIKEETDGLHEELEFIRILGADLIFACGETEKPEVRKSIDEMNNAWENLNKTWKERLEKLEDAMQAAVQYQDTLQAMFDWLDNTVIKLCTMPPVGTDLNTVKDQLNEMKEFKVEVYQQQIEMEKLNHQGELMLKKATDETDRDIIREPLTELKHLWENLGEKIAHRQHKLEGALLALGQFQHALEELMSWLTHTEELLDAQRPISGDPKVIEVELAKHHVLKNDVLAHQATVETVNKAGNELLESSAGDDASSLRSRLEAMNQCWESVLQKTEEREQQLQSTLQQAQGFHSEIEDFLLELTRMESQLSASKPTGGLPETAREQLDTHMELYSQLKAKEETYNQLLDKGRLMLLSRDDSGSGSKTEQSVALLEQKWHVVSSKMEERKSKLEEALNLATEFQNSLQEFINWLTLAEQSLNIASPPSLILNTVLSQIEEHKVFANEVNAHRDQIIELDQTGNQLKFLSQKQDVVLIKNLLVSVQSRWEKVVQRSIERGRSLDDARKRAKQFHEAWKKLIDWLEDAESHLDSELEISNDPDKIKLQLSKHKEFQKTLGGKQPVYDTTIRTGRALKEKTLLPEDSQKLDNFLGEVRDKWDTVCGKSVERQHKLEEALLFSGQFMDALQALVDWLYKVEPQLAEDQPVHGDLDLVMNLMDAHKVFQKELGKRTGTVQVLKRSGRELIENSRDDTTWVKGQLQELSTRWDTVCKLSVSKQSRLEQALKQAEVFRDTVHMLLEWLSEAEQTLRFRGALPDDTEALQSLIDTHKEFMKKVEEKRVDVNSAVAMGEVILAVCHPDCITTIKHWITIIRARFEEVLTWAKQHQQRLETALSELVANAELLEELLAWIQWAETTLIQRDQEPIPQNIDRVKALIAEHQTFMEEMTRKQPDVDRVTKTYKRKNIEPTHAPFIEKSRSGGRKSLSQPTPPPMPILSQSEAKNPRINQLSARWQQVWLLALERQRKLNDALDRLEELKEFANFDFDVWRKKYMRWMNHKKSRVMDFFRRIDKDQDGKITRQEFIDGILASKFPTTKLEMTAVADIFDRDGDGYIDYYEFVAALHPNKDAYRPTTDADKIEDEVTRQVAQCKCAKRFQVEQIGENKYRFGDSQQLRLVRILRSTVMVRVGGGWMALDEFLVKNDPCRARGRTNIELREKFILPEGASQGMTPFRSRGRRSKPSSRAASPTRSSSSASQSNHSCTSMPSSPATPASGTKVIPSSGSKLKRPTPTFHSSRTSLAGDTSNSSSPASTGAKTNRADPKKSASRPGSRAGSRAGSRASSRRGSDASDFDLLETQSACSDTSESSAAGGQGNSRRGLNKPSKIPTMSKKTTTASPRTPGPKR
UniProt P02792: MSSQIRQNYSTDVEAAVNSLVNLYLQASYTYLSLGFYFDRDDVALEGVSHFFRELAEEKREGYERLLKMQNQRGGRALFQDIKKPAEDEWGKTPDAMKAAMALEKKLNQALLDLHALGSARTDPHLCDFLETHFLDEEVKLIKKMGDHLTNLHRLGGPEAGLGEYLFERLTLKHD
UniProt P04920: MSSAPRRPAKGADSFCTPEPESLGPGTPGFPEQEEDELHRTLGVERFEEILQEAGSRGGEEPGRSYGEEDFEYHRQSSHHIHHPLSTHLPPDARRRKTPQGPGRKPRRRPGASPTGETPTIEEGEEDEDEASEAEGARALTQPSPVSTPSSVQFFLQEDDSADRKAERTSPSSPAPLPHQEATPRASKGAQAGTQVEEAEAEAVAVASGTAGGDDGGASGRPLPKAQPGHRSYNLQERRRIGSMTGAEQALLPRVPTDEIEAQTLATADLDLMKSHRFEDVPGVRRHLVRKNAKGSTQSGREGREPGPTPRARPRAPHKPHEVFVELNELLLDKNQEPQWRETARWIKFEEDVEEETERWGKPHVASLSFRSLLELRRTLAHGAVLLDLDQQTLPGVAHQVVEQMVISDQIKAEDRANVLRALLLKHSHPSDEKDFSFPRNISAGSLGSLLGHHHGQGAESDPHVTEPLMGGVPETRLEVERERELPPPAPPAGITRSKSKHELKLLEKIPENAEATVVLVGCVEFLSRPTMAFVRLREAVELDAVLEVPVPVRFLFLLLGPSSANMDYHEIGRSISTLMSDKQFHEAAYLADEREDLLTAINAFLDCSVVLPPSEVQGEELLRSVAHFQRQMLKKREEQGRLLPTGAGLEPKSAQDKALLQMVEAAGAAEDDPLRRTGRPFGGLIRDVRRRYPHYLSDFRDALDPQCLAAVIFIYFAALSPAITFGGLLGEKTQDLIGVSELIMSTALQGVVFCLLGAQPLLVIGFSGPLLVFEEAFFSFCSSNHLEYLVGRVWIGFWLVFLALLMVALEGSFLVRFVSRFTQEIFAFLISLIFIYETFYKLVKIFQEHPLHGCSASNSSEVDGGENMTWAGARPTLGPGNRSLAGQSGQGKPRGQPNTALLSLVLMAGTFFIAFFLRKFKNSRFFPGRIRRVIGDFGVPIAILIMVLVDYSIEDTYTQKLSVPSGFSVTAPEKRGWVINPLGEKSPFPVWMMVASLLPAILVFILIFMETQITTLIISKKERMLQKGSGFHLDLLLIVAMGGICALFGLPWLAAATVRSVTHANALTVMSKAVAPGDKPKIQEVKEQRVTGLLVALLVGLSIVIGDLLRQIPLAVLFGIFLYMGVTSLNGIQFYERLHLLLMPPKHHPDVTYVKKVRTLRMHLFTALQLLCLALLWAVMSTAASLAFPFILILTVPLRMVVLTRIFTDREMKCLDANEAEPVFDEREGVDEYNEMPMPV
UniProt O95139, whole entry: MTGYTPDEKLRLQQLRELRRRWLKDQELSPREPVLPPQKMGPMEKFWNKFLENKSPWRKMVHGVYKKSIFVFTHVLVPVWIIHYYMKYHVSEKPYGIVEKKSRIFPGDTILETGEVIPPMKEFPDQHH
UniProt O94979: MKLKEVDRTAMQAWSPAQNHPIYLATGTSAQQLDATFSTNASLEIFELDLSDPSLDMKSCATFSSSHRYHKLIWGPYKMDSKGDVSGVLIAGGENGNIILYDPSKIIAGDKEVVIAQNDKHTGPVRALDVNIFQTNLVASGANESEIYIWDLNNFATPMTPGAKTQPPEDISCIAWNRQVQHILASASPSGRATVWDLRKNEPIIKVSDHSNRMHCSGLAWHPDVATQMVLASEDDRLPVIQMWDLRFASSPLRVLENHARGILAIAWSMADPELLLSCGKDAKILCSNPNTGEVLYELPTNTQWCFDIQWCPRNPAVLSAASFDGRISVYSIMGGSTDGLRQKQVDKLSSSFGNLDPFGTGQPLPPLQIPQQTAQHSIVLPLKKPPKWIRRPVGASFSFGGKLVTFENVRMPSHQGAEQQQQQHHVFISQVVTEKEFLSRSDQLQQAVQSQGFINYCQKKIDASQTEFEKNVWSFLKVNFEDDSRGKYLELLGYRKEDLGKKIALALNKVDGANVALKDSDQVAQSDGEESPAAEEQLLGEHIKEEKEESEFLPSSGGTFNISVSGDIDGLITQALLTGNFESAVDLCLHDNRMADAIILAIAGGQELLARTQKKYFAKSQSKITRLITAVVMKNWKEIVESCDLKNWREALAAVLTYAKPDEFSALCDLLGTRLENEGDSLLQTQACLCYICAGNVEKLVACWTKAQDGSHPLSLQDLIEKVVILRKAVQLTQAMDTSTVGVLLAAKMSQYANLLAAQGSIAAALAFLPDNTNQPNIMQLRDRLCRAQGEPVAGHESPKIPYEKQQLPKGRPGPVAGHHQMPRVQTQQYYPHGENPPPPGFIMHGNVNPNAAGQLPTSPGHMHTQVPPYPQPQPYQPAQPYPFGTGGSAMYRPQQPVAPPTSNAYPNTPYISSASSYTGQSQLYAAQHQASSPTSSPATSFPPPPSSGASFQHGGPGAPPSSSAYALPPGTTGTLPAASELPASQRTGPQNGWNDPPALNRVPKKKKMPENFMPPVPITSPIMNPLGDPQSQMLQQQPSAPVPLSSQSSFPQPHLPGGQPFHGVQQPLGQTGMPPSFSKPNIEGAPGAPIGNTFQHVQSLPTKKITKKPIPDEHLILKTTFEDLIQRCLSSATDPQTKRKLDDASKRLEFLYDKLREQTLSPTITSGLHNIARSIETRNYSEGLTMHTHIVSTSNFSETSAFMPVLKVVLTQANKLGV
UniProt O95249: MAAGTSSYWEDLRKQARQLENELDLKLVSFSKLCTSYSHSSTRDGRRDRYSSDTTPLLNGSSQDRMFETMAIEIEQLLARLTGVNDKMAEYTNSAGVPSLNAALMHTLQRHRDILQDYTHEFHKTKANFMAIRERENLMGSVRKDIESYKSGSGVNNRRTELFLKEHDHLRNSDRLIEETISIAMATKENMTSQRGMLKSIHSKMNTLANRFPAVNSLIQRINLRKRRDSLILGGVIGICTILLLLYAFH

Compound: CCc1cnccc1C(=O)Nc1cc2c(cc1F)NC(=O)CC2
Assay: melting temperature shift (DMSO Tm minus MBE1-treated Tm) in cellular thermal proteome profiling; higher = less thermal stabilization by MBE1 (negative = stabilized by MBE1)
Settings: A375

Target	melting temperature shift (MBE1 concentration: 100 nM) [°C]	melting temperature shift (MBE1 concentration: 1 uM) [°C]
HEXIM1 (UniProt O94992)	-6.18	-3.36
UniProt O94854	-0.543	-0.83
AP2A1 (UniProt O95782)	-0.6	-0.269
UniProt O76075	0.791	0.245
TACC2 (UniProt O95359)	-0.892	0.154
UniProt P02792	-4.09	-4.09
ERLIN2 (UniProt O94905)	-0.495	-0.409
PGLS (UniProt O95336)	-0.142	-0.425
SLC4A2 (UniProt P04920)	-0.657	0.854
TRUB2 (UniProt O95900)	-0.32	0.256
NDUFB6 (UniProt O95139)	1	-1.97
MLYCD (UniProt O95822)	-0.879	0.825
PFTK1 (UniProt O94921)	0.545	0.153
PSMG1 (UniProt O95456)	-0.446	0.262
YEATS4 (UniProt O95619)	0.14	-0.159
UniProt P07093	-0.738	-1.87
UniProt O95476	-1.14	0
BPNT1 (UniProt O95861)	-1.39	-2.11
CPD (UniProt O75976)	-1.02	-0.843
ZFPL1 (UniProt O95159)	-0.94	-1.2

Target	melting temperature shift (MBE1 concentration: 100 nM) [°C]	melting temperature shift (MBE1 concentration: 1 uM) [°C]
UniProt O94817	0.141	0.165
SRP72 (UniProt O76094)	-0.334	-0.16
IPO7 (UniProt O95373)	0.421	0.537
ARIH2 (UniProt O95376)	0.00611	0.379
PCCB (UniProt P05166)	-1.64	0.657
AIFM1 (UniProt O95831)	-0.476	-0.354
POLR3D (UniProt P05423)	-0.08	-0.0612
TMEM63A (UniProt O94886)	-1.55	-0.263
NDUFC2 (UniProt O95298)	-0.592	-0.201
MAP4K4 (UniProt O95819)	0.763	0.598
CCNB2 (UniProt O95067)	-0.946	1.36
EPN2 (UniProt O95208)	-1.55	-0.202
MFN2 (UniProt O95140)	0.739	0
NRAS (UniProt P01111)	2.8	-1.54
SEC31A (UniProt O94979)	0.153	-0.354
WDR47 (UniProt O94967)	0.0805	0.335
UBXN7 (UniProt O94888)	-1.19	0.427
RPLP2 (UniProt P05387)	-2.8	-4.77
APP (UniProt P05067)	-1.56	-0.141
LDLR (UniProt P01130)	-5.96	0.511

Taken from above (4 entries):
Target	melting temperature shift (MBE1 concentration: 100 nM) [°C]	melting temperature shift (MBE1 concentration: 1 uM) [°C]
SEC31A (UniProt O94979)	0.153	-0.354
WDR47 (UniProt O94967)	0.0805	0.335
UBXN7 (UniProt O94888)	-1.19	0.427
RPLP2 (UniProt P05387)	-2.8	-4.77

More records follow.

Target	melting temperature shift (MBE1 concentration: 100 nM) [°C]	melting temperature shift (MBE1 concentration: 1 uM) [°C]
UniProt P04264	5.83	10.3
UniProt O94761	-0.47	1.8
NDUFB4 (UniProt O95168)	-0.765	-0.537
TDP2 (UniProt O95551)	1.7	0.409
GOSR1 (UniProt O95249)	-1.23	-0.336
OAT (UniProt P04181)	-1.18	-0.0916
UniProt P01011	-0.855	0.403
UniProt O95402	-1.63	-1.25
GLRX3 (UniProt O76003)	0.116	-0.611
EYA4 (UniProt O95677)	-2.44	-1.44
HEXA (UniProt P06865)	-1.83	-0.785
RSL1D1 (UniProt O76021)	-0.396	0.0604
NADK (UniProt O95544)	-0.196	2.75
POP4 (UniProt O95707)	1.51	1.81
CST3 (UniProt P01034)	-1.47	-1.94
PCF11 (UniProt O94913)	-0.0769	-0.583
PAPSS2 (UniProt O95340)	-0.0469	0.55
UniProt P06744	-0.288	-0.00671
GSN (UniProt P06396)	-0.557	-0.0335
